Assay results reported in publication PMC7958122, “Insulin-Like Growth Factor Binding Protein-3 Exerts Its Anti-Metastatic Effect in Aerodigestive Tract Cancers by Disrupting the Protein Stability of Vimentin” (Cancers, 2021).
Results are given in words; binding and its absence hold for the method and conditions named. For some assays here: Binding seen in cells or lysates may run through a third protein. Some results given as binding are weak or reduced against the parent protein; the word gives no strength. For some assays here: Where a sequence is shown, tags or fusion partners need not be part of it.

Amino acid sequences for entries named in this document (tags omitted). A change or cut given only in a name is not applied to a line headed by its entry. Chains listed by the source or under a name are the forms on record and can include a tag or linker. Residues count along the entry.
UniProt Q8N1E6: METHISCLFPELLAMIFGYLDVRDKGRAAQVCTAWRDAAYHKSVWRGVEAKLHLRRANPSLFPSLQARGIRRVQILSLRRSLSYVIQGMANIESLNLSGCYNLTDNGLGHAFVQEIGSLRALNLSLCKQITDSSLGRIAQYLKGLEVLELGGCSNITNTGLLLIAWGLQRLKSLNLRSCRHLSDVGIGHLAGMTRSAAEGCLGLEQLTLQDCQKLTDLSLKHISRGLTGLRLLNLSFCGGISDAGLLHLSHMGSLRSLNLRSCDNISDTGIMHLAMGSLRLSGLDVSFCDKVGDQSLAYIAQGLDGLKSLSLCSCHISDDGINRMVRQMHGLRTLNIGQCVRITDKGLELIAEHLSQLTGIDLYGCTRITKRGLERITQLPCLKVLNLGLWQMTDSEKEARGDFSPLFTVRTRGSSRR
UniProt P08670: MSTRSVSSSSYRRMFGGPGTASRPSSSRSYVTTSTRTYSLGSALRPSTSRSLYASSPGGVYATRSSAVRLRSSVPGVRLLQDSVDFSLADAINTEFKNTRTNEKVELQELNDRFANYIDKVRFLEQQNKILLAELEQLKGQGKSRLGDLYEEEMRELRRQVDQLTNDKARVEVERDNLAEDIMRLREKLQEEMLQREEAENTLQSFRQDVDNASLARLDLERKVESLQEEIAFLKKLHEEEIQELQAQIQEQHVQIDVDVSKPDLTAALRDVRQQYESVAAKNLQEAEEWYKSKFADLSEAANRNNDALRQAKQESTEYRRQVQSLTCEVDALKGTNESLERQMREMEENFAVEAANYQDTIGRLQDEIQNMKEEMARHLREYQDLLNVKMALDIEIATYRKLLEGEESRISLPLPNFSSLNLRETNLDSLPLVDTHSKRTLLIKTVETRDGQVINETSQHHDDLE
GST-tagged vimentin head domain deletion mutant ΔH (102-467 aa): residues 102-466 of P08670
UniProt P17936, residues 28-291: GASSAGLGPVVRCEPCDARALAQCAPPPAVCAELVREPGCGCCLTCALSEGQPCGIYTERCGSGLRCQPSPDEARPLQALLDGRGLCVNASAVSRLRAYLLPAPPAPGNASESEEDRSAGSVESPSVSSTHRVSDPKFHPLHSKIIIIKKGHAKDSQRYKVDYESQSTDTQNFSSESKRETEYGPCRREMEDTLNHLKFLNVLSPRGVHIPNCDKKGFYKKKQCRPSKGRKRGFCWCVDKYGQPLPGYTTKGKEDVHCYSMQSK

What was measured:
[1] = target: HA-tagged FBXL14 (UniProt Q8N1E6); experiment: co-IP; HEK293T cells transiently transfected, treated with MG132 (10 µM) for 6 h; IP with anti-HA antibody, Western blot
[2] = target: vimentin, endogenous (human (endogenous in UMSCC38, OSC19-Luc, HEK293T)) (UniProt P08670); experiment: co-IP; lysates (EBC lysis buffer) of MG132-treated UMSCC38-shEV cells, of UMSCC38-shBP3 cells and of OSC19-Luc cells transfected with EV or pCMV6-IGFBP3; IP with anti-vimentin or anti-IGFBP-3 antibodies, Protein A agarose, Western blot
[3] = target: vimentin in HEK293T cells cotransfected with an expression vector for vimentin (human) (UniProt P08670); experiment: co-IP; HEK293T cells transiently cotransfected, treated with MG132 (10 µM) for 6 h; IP with anti-vimentin antibody, Western blot
[4] = target: GST-tagged recombinant full-length vimentin protein (human) (UniProt P08670); experiment: pull-down; glutathione-agarose-bound GST-vimentin incubated with UMSCC38 cell lysates; TNE binding buffer, 2 h or overnight at 4 °C; Western blot; only the target purified
[5] = target: GST-tagged vimentin head domain deletion mutant ΔH (102-467 aa) (human) (UniProt P08670); experiment: pull-down; in vitro binding: glutathione-agarose-bound GST-vimentin (full-length, domains or deletion mutants) incubated with purified recombinant IGFBP-3 or its C-terminal domain; TNE binding buffer, 4 °C; Western blot; both purified
[6] = target: vimentin, endogenous (human (endogenous in UMSCC38, OSC19-Luc, HEK293T)) (UniProt P08670); experiment: co-IP; UM38-shBP3 cells transfected with HA-FBXL14, treated with rBP3 (5 µg/mL) for 48 h, with or without MG132 (10 µM) 6 h, washed; IP of lysates (antibody not told), Western blot; rBP3 added as recombinant protein; only the binder purified

For “IGFBP-3 expressed from pCMV6-IGFBP3 (no signal peptide) (from UniProt P17936 28-291)”, the binding [1] was “binds”, the binding [2] was “binds” and the binding [3] was “binds”.

For “insulin-like growth factor binding protein-3 (IGFBP-3), endogenous (from UniProt P17936 28-291)”, the binding [4] was “binds” and the binding [2] was “binds”.

With “recombinant IGFBP-3 protein (rBP3) of the in vitro binding assays with vimentin domains (from UniProt P17936 28-291)” the binding [5] was “no binding”.

“recombinant IGFBP-3 protein in full-length [rBP3 (FL)], added to cells (from UniProt P17936 28-291)” was tested, and the binding [6] was “binds”.

B1: Flag-tagged FBXO1 (Cyclin F) (enzyme, UniProt P41002 1-786)
chain: MGSGGVVHCRCAKCFCYPTKRRIRRRPRNLTILSLPEDVLFHILKWLSVEDILAVRAVHSQLKDLVDNHASVWACASFQELWPSPGNLKLFERAAEKGNFEAAVKLGIAYLYNEGLSVSDEARAEVNGLKASRFFSLAERLNVGAAPFIWLFIRPPWSVSGSCCKAVVHESLRAECQLQRTHKASILHCLGRVLSLFEDEEKQQQAHDLFEEAAHQGCLTSSYLLWESDRRTDVSDPGRCLHSFRKLRDYAAKGCWEAQLSLAKACANANQLGLEVRASSEIVCQLFQASQAVSKQQVFSVQKGLNDTMRYILIDWLVEVATMKDFTSLCLHLTVECVDRYLRRRLVPRYRLQLLGIACMVICTRFISKEILTIREAVWLTDNTYKYEDLVRMMGEIVSALEGKIRVPTVVDYKEVLLTLVPVELRTQHLCSFLCELSLLHTSLSAYAPARLAAAALLLARLTHGQTQPWTTQLWDLTGFSYEDLIPCVLSLHKKCFHDDAPKDYRQVSLTAVKQRFEDKRYGEISQEEVLSYSQLCAALGVTQDSPDPPTFLSTGEIHAFLSSPSGRRTKRKRENSLQEDRGSFVTTPTAELSSQEETLLGSFLDWSLDCCSGYEGDQESEGEKEGDVTAPSGILDVTVVYLNPEQHCCQESSDEEACPEDKGPQDPQALALDTQIPATPGPKPLVRTSREPGKDVTTSGYSSVSTASPTSSVDGGLGALPQPTSVLSLDSDSHTQPCHHQARKSCLQCRPPSPPESSVPQQQVKRINLCIHSEEEDMNLGLVRL
For B1, the binding [3] was “no binding”.
